The record followed here is the supplement of paper PMC8616043.

Molecules are shown by their SMILES. Where “and” joins values, the source holds several entries; their conditions need not be identical. Identical values can stand only once. Counter-ions that a name gives are not always drawn. The list shows a part of the results. Repeats in this data set agree poorly, so a single value says little.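 The cells are human U-2 OS cells that stably carry a GFP sensor with a nuclear import signal and a classical export signal. They were transfected to make PR50, a 50-repeat proline–arginine dipeptide protein from the ALS/FTD gene C9ORF72. Each well's nuclear-minus-cytoplasm GFP signal was scaled from in-plate DMSO (low) to PR-only wells (high), then scored against the other test wells on the plate; compounds scoring well below zero were called hits that reverse the PR effect.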

This assay concerns U-2 OS NCT-C biosensor cells expressing PR50. Nature of the assay: Z-score of normalised NCT-C biosensor translocation index in PR50-expressing cells; higher = more nuclear biosensor (more disrupted nuclear export). Particulars: 3 µM; 24 h.
Turning to `NCCC(O)(P(=O)(O)O)P(=O)(O)O` [Pamidronate Disodium  Pentahydrate (Pamidronic Acid)], the Z-score is inactive: -0.238. Next, `O=c1cc(-c2ccc(O)cc2)oc2cc(O[C@@H]3O[C@H](CO)[C@@H](O)[C@H](O)[C@H]3O)cc(O)c12` [Apigenin-7-glucoside]: inactive: 0.104; `CCCNC(C)C(=O)Nc1c(C)csc1C(=O)OC` (configuration not stated) [Articaine·HCl]: inactive: -0.445.

`C[C@@H]1O[C@@H](OC[C@H]2O[C@@H](Oc3cc(O)c4c(c3)O[C@H](c3ccc(O)c(O)c3)CC4=O)[C@H](O)[C@@H](O)[C@@H]2O)[C@H](O)[C@H](O)[C@H]1O` [Eriocitrin]: the Z-score was inactive: 0.499.

With `CC1(C)CC=C(c2cnc3ccccc3c2)c2cc(C(=O)Nc3ccc(C(=O)O)cc3)ccc21`, the Z-score is inactive: 0.267. Next, `C[C@]12CCC(=O)C=C1C=C[C@@H]1[C@@H]2CC[C@@]2(C)[C@H]1CC[C@@]21CCC(=O)O1` [Canrenone]: inactive: -0.203. `COc1ccc2c(c1)c(CC(=O)O)c(C)n2Cc1ccc(Cl)cc1` [1-(4-Chlorobenzyl)-5- methoxy-2- methylindole-3- acetic acid]: the Z-score is inactive: 4.25. Take `COC(=O)[C@@H](N)Cc1ccc(O)c(O)c1` [L-3,4-Dihydroxy phenylalanine methyl ester hydrochloride]: the Z-score is inactive: -0.135. Next, `CC(N)(Cc1ccc(O)cc1)C(=O)O` (racemic) [DL-alpha-Methyl-p tyrosine]: inactive: 0.891; `COC(=O)CCc1ccc(OCC(O)CNC(C)C)cc1` (configuration not stated) [Esmolol]: inactive: 0.688. As to `COCCOC(=O)C1=C(C)NC(C)=C(C(=O)OC(C)C)C1c1cccc([N+](=O)[O-])c1` (configuration not stated) [Nimodipine], the Z-score was inactive: -0.461. Next, `NCCS` [Cysteamine hydrochloride]: inactive: -0.973. With `NCCS` [Cysteamine·HCl] the figure was inactive: 0.00235; with `CN1C(C(=O)Nc2ccccn2)=C(O)c2ccccc2S1(=O)=O` [Piroxicam], inactive: 0.597. With `COc1c(C)c2c(c(O)c1C/C=C(\C)CCC(=O)OCCN1CCOCC1)C(=O)OC2` [Mycophenolate Mofetil] the figure was inactive: -0.436. Take `O=C(O)c1ccc(-n2nc(-c3ccccc3O)nc2-c2ccccc2O)cc1` [Deferasirox]: the Z-score is inactive: -0.0284. On to `COc1c2ccoc2cc2oc(C)cc(=O)c12` [Visnagin], for which the Z-score is inactive: -0.351. With `NCC(=O)CCC(=O)O` [Aminolevulinic Acid·HCl] the figure was inactive: -0.0667; with `O=C(O)C[C@H](O)C[C@H](O)/C=C/c1c(C2CC2)nc2ccccc2c1-c1ccc(F)cc1` [Pitavastatin Calcium], inactive: 0.147. With `Cc1ccc(C)c(OCCCC(C)(C)C(=O)O)c1` [Gemfibrozil] the figure was inactive: 0.697; with `O=c1[nH]c2cc(Cl)ccc2c(O)c1-c1cccc(Oc2ccccc2)c1`, inactive: 0.324; with `NCCCCN` [Putrescine dihydrochloride], inactive: -0.911. Next, `CN(Cc1ccc(C(C)(C)C)cc1)Cc1cccc2ccccc12` [Butenafine·HCl]: inactive: 0.232. Turning to `CCCCCCCCCCCC(=O)c1c(O)c(C(=O)CCCCCCCCCCC)c(O)c(C2CC(c3ccc(O)cc3)Oc3cc(O)ccc32)c1O` (configuration not stated), the Z-score is inactive: 0.197. With `Cc1cccc(-c2[nH]ncc2-c2ccc3ncccc3n2)n1` the figure was inactive: -0.299; with `C=C[C@@](C)(/C=C/c1ccc(O)cc1)CCC=C(C)C` [Bakuchiol], inactive: -0.0644; with `S=c1[nH]cnc2nc[nH]c12` [Mercaptopurine Hydrate], inactive: 0.608. Next, `Cc1nnc(SCC2=C(C(=O)O)N3C(=O)[C@@H](NC(=O)Cn4cnnn4)[C@H]3SC2)s1` [Cefazolin sodium salt]: inactive: -0.202.

Take `Nc1nc2c(ncn2[C@@H]2O[C@H](CO)[C@@H](O)[C@@H]2O)c(=O)[nH]1` [Ara-G hydrate]: the Z-score was inactive: -0.274.

In the case of `COc1ccc2c3c1O[C@H]1C[C@@H](O)C=C[C@@]31CCN(C)C2` [Galantamine·HBr], the Z-score is inactive: 0.0843. Next, `CCCCC1(C2CCCC2)Cc2cc(OCC(=O)O)c(Cl)c(Cl)c2C1=O` (stereo in doubt) [R(+)-Butylindazone]: inactive: -0.652. Consider `CC1(C)S[C@@H]2[C@H](NC(=O)COc3ccccc3)C(=O)N2[C@H]1C(=O)O` [Penicillin V Potassium], for which the Z-score was inactive: -0.405. As for `O=C1OC(=O)[C@H]2[C@@H]1[C@@H]1CC[C@H]2O1` [Norcantharidin], the Z-score was inactive: -0.218.

Turning to `CC(C)Cn1cnc2c(N)nc3ccccc3c21` [Imiquimod], the Z-score was inactive: 0.18. Next, `Cc1nc2ccc(NC(=O)Nc3ccnc4cccnc34)cc2o1`: inactive: -0.306; `NC(=O)N1c2ccccc2CC(=O)c2ccccc21` [Oxcarbazepine]: inactive: 0.419; `NC1=NCC2c3ccccc3Cc3ccccc3N12` (configuration not stated) [Epinastine·HCl]: inactive: 0.364. Next, `NC1=NCC2c3ccccc3Cc3ccccc3N12` (configuration not stated) [Epinastine hydrochloride]: inactive: -0.0277. Next, `Cc1cccc(Nc2ccncc2S(=O)(=O)NC(=O)NC(C)C)c1` [Torsemide]: inactive: -0.112; `CSc1c(C)c(SC)n2ccncc12` [Oltipraz metabolite M2]: inactive: -1.41; `COc1cc2ccc(=O)oc2cc1O` [Scopoletin]: inactive: -0.19.

On to `CC1(C)O[C@@H]2[C@@H](CO[C@@]3(COS(N)(=O)=O)OC(C)(C)O[C@@H]23)O1` [Topiramate], for which the Z-score is inactive: -0.174. With `CN(C)c1cc(NC(=O)CNC(C)(C)C)c(O)c2c1C[C@H]1C[C@H]3[C@H](N(C)C)C(O)=C(C(N)=O)C(=O)[C@@]3(O)C(O)=C1C2=O` [Tigecycline] the figure was inactive: 0.126. Take `CCOC(=O)[C@@H](N)Cc1ccc(O)c(O)c1` [L-Dopa ethyl ester]: the Z-score is inactive: -0.151. Next, `O=C1Nc2ccc(I)cc2/C1=C/c1cc(Br)c(O)c(Br)c1`: inactive: -0.0435; `O=C1N=C(O)NC1(c1ccccc1)c1ccccc1` [Phenytoin sodium]: inactive: -0.288. With `COc1ccc2cc3[n+](cc2c1OC)CCc1cc2c(cc1-3)OCO2` [Berberine·HCl] the figure was inactive: -0.681; with `Cc1c2oc3c(C)ccc(C(=O)N[C@@H]4C(=O)N[C@H](C(C)C)C(=O)N5CCC[C@H]5C(=O)N(C)CC(=O)N(C)[C@@H](C(C)C)C(=O)O[C@@H]4C)c3nc-2c(C(=O)N[C@@H]2C(=O)N[C@H](C(C)C)C(=O)N3CCC[C@H]3C(=O)N(C)CC(=O)N(C)[C@@H](C(C)C)C(=O)O[C@@H]2C)c(N)c1=O` [Dactinomycin (= Actinomycin D)], inactive: -1.49.

As to `Cc1nccn1CC1CCc2c(c3ccccc3n2C)C1=O` (configuration not stated) [Ondansetron], the Z-score is inactive: 0.332. `CC(=O)NC[C@H]1CN(c2ccc(N3CCOCC3)c(F)c2)C(=O)O1` [Linezolid]: the Z-score is inactive: 3.58. Next, `O=c1c2ccccc2[nH]c(=S)n1CCN1CCC(=C(c2ccc(F)cc2)c2ccc(F)cc2)CC1` [Diacylglycerol Kinase Inhibitor II]: inactive: -0.223; `Cc1cccn2c(=O)c(-c3nnn[nH]3)cnc12` [Pemirolast Potassium]: inactive: -0.788.

For `CCCc1c(OCCCOc2ccc(OCC(=O)O)cc2)ccc(C(C)=O)c1O`, the Z-score was inactive: -0.0165. Consider `CC1=C(C(=O)O)N2C(=O)[C@@H](NC(=O)[C@H](N)c3ccccc3)[C@H]2SC1` [Cephalexin Monohydrate], for which the Z-score is inactive: -0.185. Next, `CC1=C(C(=O)O)N2C(=O)[C@@H](NC(=O)[C@H](N)c3ccccc3)[C@H]2SC1` [Cephalexin hydrate]: inactive: -0.462; `CN1CC(=O)N=C1NC(=O)Nc1cccc(Cl)c1` [Fenobam]: inactive: -0.106; `CC(C)(C)OC(=O)Nc1ccc(-c2cc(C(=O)NCCCCCCC(=O)NO)no2)cc1`: inactive: -0.185 and inactive: 6.25. Next, `CC(C)(C)NCC(O)COc1cccc2c1CC(O)C(O)C2` (configuration not stated) [Nadolol]: inactive: -0.351; `Cc1ccc(S(=O)(=O)/C=C/C#N)cc1`: inactive: 0.165; `COc1cc(-c2cc(-c3ccc(N4CCNCC4)cc3)cnc2C)cc(OC)c1OC`: inactive: -0.682. Consider `O=C(O)c1ccc(O)c2ncccc12`, for which the Z-score was inactive: -1.26. Consider `Oc1ccccc1-c1cc(-c2ccccc2F)[nH]n1`, for which the Z-score is inactive: 0.365. Next, `Nc1cc(N)c(N)cc1N` [FAK Inhibitor 14]: inactive: 0.622; `O=C(c1ccc(Cl)cc1Cl)n1nnc2ccccc21`: active: -2.22.

For the compound `C=C1[C@H](CO)[C@@H](O)C[C@@H]1n1cnc2c(=O)[nH]c(N)nc21` [Entecavir], the Z-score was inactive: -0.639.

For `CC(=O)O[C@]1(C(C)=O)CC[C@H]2[C@@H]3C=C(C)C4=CC(=O)CC[C@]4(C)[C@H]3CC[C@@]21C` [Megestrol Acetate], the Z-score is inactive: 0.531. Next, `Cc1cccc(C2CN(C)CCc3c2cc(O)c(O)c3Cl)c1` (configuration not stated): inactive: -1.01. With `Nc1nc(=O)[nH]cc1F` [Flucytosine] the figure was inactive: 0.84; with `CC(C)(S)[C@H](N)C(=O)O` [L-Penicillamine], inactive: -1.14. With `Oc1cc(O)cc(/C=C/c2ccc(O)c(O)c2)c1` [Piceatannol] the figure was inactive: -1.14. As for `CC[C@@]1(O)C(=O)OCc2c1cc1n(c2=O)Cc2cc3c(CN(C)C)c(O)ccc3nc2-1` [Topotecan hydrochloride hydrate], the Z-score is inactive: 0.789. As to `CC[C@@]1(O)C(=O)OCc2c1cc1n(c2=O)Cc2cc3c(CN(C)C)c(O)ccc3nc2-1` [Topotecan·HCl], the Z-score is inactive: -0.21.
